Assay results as given in paper PMC8243547 (BMC Complementary Medicine and Therapies, 2021).

Assays:
[1] = system: murine macrophages Raw 264.7 cells; experiment: Resazurin-based cytotoxicity assay, Raw 264.7 cells; conditions: for SI Raw Pf3D7: CC50 Raw / EC50 Pf3D7; for SI Raw (PfDd2): CC50 Raw / EC50 PfDd2
Description: (§1) The cytotoxicity assay was performed using the African green monkey normal kidney Vero cells (ATCC CRL 1586) and murine macrophages Raw 264.7 cells (ATCC #TIB-71) obtained from the American Type Culture Collection (ATCC).
(§2) The cytotoxicity of active natural products was assessed according to the protocol described by. The African green monkey normal kidney Vero cells (ATCC CRL 1586) and murine macrophages Raw 264.7 cells (ATCC #TIB-71) were maintained in T-25 flasks (Corning Incorporated, USA) using complete Dulbecco’s Modified Eagle’s Medium (Sigma-Aldrich, Germany), supplemented with, 10% Fetal Bovine Serum (Sigma-Aldrich, Germany), 0.2% sodium bicarbonate (w/v) (Sigma-Aldrich, Germany) and 1% (v/v) Penicillin-Streptomycin (Sigma-Aldrich, Germany). The cells were kept at 37 °C for 72 h in 5% CO2 incubator, and the medium was renewed each 72 h and the cell density monitored under the inverted fluorescent microscope Etaluma 520 (Etaluma, USA) until the formation of a monolayer. Confluent culture (nearly 90%) was trypsinized (0.05% Trypsin-EDTA, Sigma-Aldrich, Germany), then centrifuged at 1800 rpm for 5 min and the resulting pellet was re-suspended in culture medium. Cells at 10^4cells per well were seeded (100 μL) in 96-well culture plates (Costar, USA) and incubated overnight to allow cell adhesion. Thereafter, 10 μL of serially diluted extracts, fractions (≤200 μg/mL), and compounds (≤50 μg/mL) were added to plate wells in duplicate. The plates were incubated in a humidified and 5% CO2 atmosphere at 37 °C for 48 h. Podophyllotoxin at 20 μM was added as positive control and wells containing untreated cells were included as 100% growth control. Ten microliters of resazurin stock solution (0.15 mg/mL in sterile PBS), were added to each well, and incubated for an additional 4 h. Fluorescence was then read using a Magelan Infinite M200 fluorescence multi-well plate reader (Tecan) with excitation and emission wavelengths at 530 and 590 nm, respectively. The percentage of cell viability was calculated with regard to the negative control, and subsequently used to determine the concentration that reduced 50% of cell viability (CC50) by non-linear regression using the GraphPad Prism software version 5.0 (San Diego, California) as described above. Selectivity indices (SI = CC50/EC50, defining the balance between cytotoxicity and antiplasmodial activity) were calculated for each test substance.
(§3) Microsoft Excel Software was used to calculate the percentage of inhibition. The EC50 and CC50 values for the in vitro antiplasmodial activity were determined by non-linear regression analysis using GraphPad Prism 5.0 Software.

[2] = system: African green monkey normal kidney Vero cells; experiment: Resazurin-based cytotoxicity assay, Vero cells; conditions: for SI Vero Pf3D7: CC50 Vero / EC50 Pf3D7; for SI Vero (PfDd2): CC50 Vero / EC50 PfDd2
Description: as §1, §2, §3

| SMILES | SI Raw Pf3D7 [1] | SI Raw (PfDd2) [1] | SI Vero Pf3D7 [2] | SI Vero (PfDd2) [2] |
| --- | --- | --- | --- | --- |
| O=c1cc(-c2ccc(O)cc2)oc2cc(O)cc(O)c12 [Compound 1, apigenin] | > 9.73 | > 11.29 | > 9.73 | > 11.29 |
| COc1c(O)cc2c(=O)oc3c(OC)c(O)cc4c(=O)oc1c2c34 [Compound 6, 3,3′-O-dimethylellagic acid] | > 35.48 | > 111.41 | > 35.48 | > 111.41 |
